Assay results: patent US20220098257A1, “Methods of Treating Epilepsy via Phosphodiesterase 4 (PDE4) Inhibition” (Path Therapeutics, Inc., priority 2019, published 2022)
For at least one compound, name, drawing or mass did not settle the structure.

Test system: scn1lab mutant zebrafish
Assay type: in vivo
Settings: 40 μM dose of PDE4 inhibitor
Experimental: The scn1lab mutant zebrafish employed in this Experimental section are homozygous, loss-of-function mutants. To measure bioenergetics in whole, living zebrafish (further details of which may be found in Ibhazehiebo et al. (2018) Brain 141(3):744-761), zebrafish larvae (5 days post-fertilization, dpf) were seeded into 24-well islet capture microplates (Agilent) and pre-exposed to vehicle or drug for 20 minutes prior to the start of the assay. Oxygen consumption rates (OCR) were measured using the Seahorse Bioanalyzer (Agilent).
In a similar assay to that described above, scn1lab mutants are exposed to a 40 μM dose of a range of PDE4 inhibitors. […]

SMILES: CC(C)C(=O)c1c(C(C)C)nn2ccccc12 [Ibudilast, ibudilast]
- OCR response / bioenergetics relative to WT baseline: restored OCR response to baseline levels
